Values of other authors in patent publication US5110911A, “Human tumor-associated Thomsen-Friedenreich antigen” (Biomira, Inc., priority 1989, dated 1992).
Where two headings read alike, the source gives them in different places.

Test system: β-D Gal (1→3 GalNAc structure in cancer tissues)
Conditions: Yuan et al., cited from earlier work

B1: PNA: lectin extracted from the peanut (Arachis hypogaea) which recognizes the terminal disaccharide of the TF-antigen (protein, UniProt P02872 24-273, looked up)
Galactose-binding lectin: AETVSFNFNSFSEGNPAINFQGDVTVLSNGNIQLTNLNKVNSVGRVLYAMPVRIWSSATGNVASFLTSFSFEMKDIKDYDPADGIIFFIAPEDTQIPAGSIGGGTLGVSDTKGAGHFVGVEFDTYSNSEYNDPPTDHVGIDVNSVDSVKTVPWNSVSGAVVKVTVIYDSSTKTLSVAVTNDNGDITTIAQVVDLKAKLPERVKFGFSASGSLGGRQIHLIRSWSFTSTLITTTRRSIDNNEKKIMNMASA
In the case of B1, the “sensitivity in cancer tissues” value is listed as 91%, the specificity (with autopsy controls) is listed as 68% and the specificity (with nonneoplastic disease mucosa) is listed as 86%.
